These results are taken from US20110059043A1, “CHEMICAL COMPOUNDS” (priority 2009, published 2011).

Amino acid sequences for entries named in this document (tags omitted). Residues count along the entry.
UniProt P26663, 2420-2989: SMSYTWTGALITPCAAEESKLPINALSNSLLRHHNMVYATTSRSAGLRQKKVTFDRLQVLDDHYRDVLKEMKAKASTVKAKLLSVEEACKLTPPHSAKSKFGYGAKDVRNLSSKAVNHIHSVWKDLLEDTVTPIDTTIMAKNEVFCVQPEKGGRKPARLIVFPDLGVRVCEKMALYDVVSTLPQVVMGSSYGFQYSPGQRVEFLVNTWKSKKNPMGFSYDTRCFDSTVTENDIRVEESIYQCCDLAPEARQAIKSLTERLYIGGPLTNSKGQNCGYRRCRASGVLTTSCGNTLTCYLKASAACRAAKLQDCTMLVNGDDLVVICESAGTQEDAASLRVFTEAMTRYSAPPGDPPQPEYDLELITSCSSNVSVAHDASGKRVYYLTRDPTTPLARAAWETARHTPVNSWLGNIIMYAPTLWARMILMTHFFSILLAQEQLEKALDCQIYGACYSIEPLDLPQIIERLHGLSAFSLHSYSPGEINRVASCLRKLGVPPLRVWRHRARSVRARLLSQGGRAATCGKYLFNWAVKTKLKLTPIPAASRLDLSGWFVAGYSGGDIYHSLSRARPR

Series [1] concerns HCV replicon cells Huh 9B. In words: HCV replicon assay (luciferase). The class given is cell-based. Conditions: Hepatitis C virus, reduction of replicon level by 50% vs untreated cell control, 72 h. How it is done: (§1) HCV replicon cells Huh 9B (ReBlikon), containing the firefly luciferase—ubiquitin—neomycin phosphotransferase fusion protein and EMCV-IRES driven HCV polyprotein with cell culture adaptive mutations.
(§2) Cells were cultured at 37° C. in a 5% CO2 environment and split twice a week on seeding at 2×10^6 cells/flask on day 1 and 1×10^6 3 days later. G418 at 0.5 mg/ml was added to the culture medium but not the assay medium. The culture medium consisted of DMEM with […] glucose and glutamax (Gibco 61965-026) supplemented with 1×non-essential amino acids (Invitrogen 11140-035), penicillin (100 IU/ml)/streptomycin (100 μg/ml) (Invitrogen 15140-122), FCS (10%, 50 ml) and […] (Invitrogen 10131-027) & 10% Australian foetal calf serum (Invitrogen 10099-141).
A flask of cells was trypsinised and a cell count carried out. Cells were diluted to 100,000 cells/ml and 100 μl of this used to seed one opaque white 96-well plate (for the replicon assay) and one flat-bottomed clear plate (for the tox assay) for every five compounds to be tested for IC50. Wells G12 and H12 were left empty in the clear plate as the blank. […]
The M injector of the microplate luminometer (Lmax, Molecular Devices) was primed with 5×300 μl injections of the diluted substrate. […] The signal was measured using a 1 second delay followed by a 4 second measurement programme. […]
(In general: A replicon is a self-replicating genome or part of one, used to study replication in cells.)

For series [2], the system named is HCV replicon cells Huh 9B. Format: cell-based. Conditions: concentration reducing total cell area by 50% relative to DMSO controls; 72 h. How it is done: as §1, §2
A flask of cells was trypsinised and a cell count carried out. […]
The clear plate was stained with 100 μl 0.5% methylene blue in 50% ethanol at room temperature for lh, followed by solvation of the absorbed methylene blue in 100 μl per well of 1% lauroylsarcosine. Absorbance of the plate was measured on a microplate spectrophotometer (Molecular Devices) and the absorbance for each concentration of compound expressed as a proportion of the relative DMSO control. […]

The target of series [3] is T1, Recombinant HCV polymerase (BK strain) (Hepatitis C virus genotype 1b, UniProt P26663).
T1 construct: Recombinant HCV polymerase (BK strain) was expressed and purified from E. coli with a 21 amino acid C-terminal deletion; His6; made in house; host or cells: E. coli
In words: HCV polymerase enzyme assay (radiometric [33P]-UTP incorporation). The class given is biochemical, HCV 1b. How it is done: Compounds were tested for inhibition of HCV polymerase using a radiometric [^33P]-UTP incorporation assay and a biotinylated U13:PolyA primer:template RNA substrate.
Recombinant HCV polymerase (BK strain) was expressed and purified from E. coli with a 21 amino acid C-terminal deletion and a His6-tag. The general assay buffer consisted of 20 mM Tris (pH 7.5), 25 mM KCl, 5 mM MgCl2, 3 mM DTT, 0.5 mg/ml BSA, 0.01% Tween20. The standard reaction, in 96 well plates, contained 10 μl of diluted compound, 50 μl of substrate and 40 μl of enzyme. Compounds, supplied as 10 mM stocks in DMSO, were diluted initially in neat DMSO, and subsequently buffer was added to give a DMSO concentration of 30%; 10 μl of this was added to the assay plate to give a final concentration in the 100 μl assay of 3% DMSO. The biotinylated U13:PolyA RNA substrate was pre-annealed with 40 μM 5′-biotinylated U13 (Dharmacon) and 213 μg/ml PolyA (Amersham Biosciences) in water incubated at 70° C. for 5 minutes before being cooled on ice. Substrate (50 μl) was added in buffer to give a final concentration in the 100 μl assay of 125 nM biotinylated U13:0.63 μg/ml PolyA and 200 nM UTP with 0.4 μCi [^33P]-UTP per well (Perkin Elmer). […] The plates were then washed three times with phosphate-buffered saline containing 0.05% Tween20 in an automated plate washer to remove unincorporated [^33P]-UTP, and then counted in a […]

What is called IC50 is the concentration needed to halve the response being measured. As to `COCCOc1ncc(F)cc1C(=O)NC1N=C(c2c(Cl)cc(Cl)cc2OC)c2ccccc2NC1=O` (stereo not drawn) [Example 54, N-(5-(2,4-Dichloro-6-methoxyphenyl)-2-oxo-2,3-dihydro-1H-benzo[e][1,4]diazepin-3-yl)-5-fluoro-2-(2-methoxyethoxy)nicotinamide], the concentration for half-maximal inhibition (IC50) in series [1] was 18.4 nM; in series [3] it was 108 nM. Besides, the “Replicon Assay Value TD50” value in series [2] is more than 25 µM.
